# According to paper PMC4954646:
# These are yes or no findings as the source states them, for the method shown. In cells and extracts the contact can be indirect. Some binding calls cover weakened binding; strength is not graded here.
# B1: full-length ASPP2 (protein, UniProt Q13625 1-1128)
# chain: MMPMFLTVYLSNNEQHFTEVPVTPETICRDVVDLCKEPGESDCHLAEVWCGSERPVADNERMFDVLQRFGSQRNEVRFFLRHERPPGRDIVSGPRSQDPSLKRNGVKVPGEYRRKENGVNSPRMDLTLAELQEMASRQQQQIEAQQQLLATKEQRLKFLKQQDQRQQQQVAEQEKLKRLKEIAENQEAKLKKVRALKGHVEQKRLSNGKLVEEIEQMNNLFQQKQRELVLAVSKVEELTRQLEMLKNGRIDSHHDNQSAVAELDRLYKELQLRNKLNQEQNAKLQQQRECLNKRNSEVAVMDKRVNELRDRLWKKKAALQQKENLPVSSDGNLPQQAASAPSRVAAVGPYIQSSTMPRMPSRPELLVKPALPDGSLVIQASEGPMKIQTLPNMRSGAASQTKGSKIHPVGPDWSPSNADLFPSQGSASVPQSTGNALDQVDDGEVPLREKEKKVRPFSMFDAVDQSNAPPSFGTLRKNQSSEDILRDAQVANKNVAKVPPPVPTKPKQINLPYFGQTNQPPSDIKPDGSSQQLSTVVPSMGTKPKPAGQQPRVLLSPSIPSVGQDQTLSPGSKQESPPAAAVRPFTPQPSKDTLLPPFRKPQTVAASSIYSMYTQQQAPGKNFQQAVQSALTKTHTRGPHFSSVYGKPVIAAAQNQQQHPENIYSNSQGKPGSPEPETEPVSSVQENHENERIPRPLSPTKLLPFLSNPYRNQSDADLEALRKKLSNAPRPLKKRSSITEPEGPNGPNIQKLLYQRTTIAAMETISVPSYPSKSASVTASSESPVEIQNPYLHVEPEKEVVSLVPESLSPEDVGNASTENSDMPAPSPGLDYEPEGVPDNSPNLQNNPEEPNPEAPHVLDVYLEEYPPYPPPPYPSGEPEGPGEDSVSMRPPEITGQVSLPPGKRTNLRKTGSERIAHGMRVKFNPLALLLDSSLEGEFDLVQRIIYEVDDPSLPNDEGITALHNAVCAGHTEIVKFLVQFGVNVNAADSDGWTPLHCAASCNNVQVCKFLVESGAAVFAMTYSDMQTAADKCEEMEEGYTQCSQFLYGVQEKMGIMNKGVIYALWDYEPQNDDELPMKEGDCMTIIHREDEDEIEWWWARLNDKEGYVPRNLLGLYPRIKPRQRSLA
# B2: ASPP2(1-360) (domain or fragment, UniProt Q13625 1-360)
# chain: MMPMFLTVYLSNNEQHFTEVPVTPETICRDVVDLCKEPGESDCHLAEVWCGSERPVADNERMFDVLQRFGSQRNEVRFFLRHERPPGRDIVSGPRSQDPSLKRNGVKVPGEYRRKENGVNSPRMDLTLAELQEMASRQQQQIEAQQQLLATKEQRLKFLKQQDQRQQQQVAEQEKLKRLKEIAENQEAKLKKVRALKGHVEQKRLSNGKLVEEIEQMNNLFQQKQRELVLAVSKVEELTRQLEMLKNGRIDSHHDNQSAVAELDRLYKELQLRNKLNQEQNAKLQQQRECLNKRNSEVAVMDKRVNELRDRLWKKKAALQQKENLPVSSDGNLPQQAASAPSRVAAVGPYIQSSTMPRMP
# B3: ASPP2(123-1128) (domain or fragment, UniProt Q13625 123-1128)
# chain: RMDLTLAELQEMASRQQQQIEAQQQLLATKEQRLKFLKQQDQRQQQQVAEQEKLKRLKEIAENQEAKLKKVRALKGHVEQKRLSNGKLVEEIEQMNNLFQQKQRELVLAVSKVEELTRQLEMLKNGRIDSHHDNQSAVAELDRLYKELQLRNKLNQEQNAKLQQQRECLNKRNSEVAVMDKRVNELRDRLWKKKAALQQKENLPVSSDGNLPQQAASAPSRVAAVGPYIQSSTMPRMPSRPELLVKPALPDGSLVIQASEGPMKIQTLPNMRSGAASQTKGSKIHPVGPDWSPSNADLFPSQGSASVPQSTGNALDQVDDGEVPLREKEKKVRPFSMFDAVDQSNAPPSFGTLRKNQSSEDILRDAQVANKNVAKVPPPVPTKPKQINLPYFGQTNQPPSDIKPDGSSQQLSTVVPSMGTKPKPAGQQPRVLLSPSIPSVGQDQTLSPGSKQESPPAAAVRPFTPQPSKDTLLPPFRKPQTVAASSIYSMYTQQQAPGKNFQQAVQSALTKTHTRGPHFSSVYGKPVIAAAQNQQQHPENIYSNSQGKPGSPEPETEPVSSVQENHENERIPRPLSPTKLLPFLSNPYRNQSDADLEALRKKLSNAPRPLKKRSSITEPEGPNGPNIQKLLYQRTTIAAMETISVPSYPSKSASVTASSESPVEIQNPYLHVEPEKEVVSLVPESLSPEDVGNASTENSDMPAPSPGLDYEPEGVPDNSPNLQNNPEEPNPEAPHVLDVYLEEYPPYPPPPYPSGEPEGPGEDSVSMRPPEITGQVSLPPGKRTNLRKTGSERIAHGMRVKFNPLALLLDSSLEGEFDLVQRIIYEVDDPSLPNDEGITALHNAVCAGHTEIVKFLVQFGVNVNAADSDGWTPLHCAASCNNVQVCKFLVESGAAVFAMTYSDMQTAADKCEEMEEGYTQCSQFLYGVQEKMGIMNKGVIYALWDYEPQNDDELPMKEGDCMTIIHREDEDEIEWWWARLNDKEGYVPRNLLGLYPRIKPRQRSLA
# Biological target: mGFP-H-rasG12V (UniProt P01112)
# Assay: co-IP; GFP pull-down: HEK cells cotransfected with mGFP-H-rasG12V and an ASPP2 construct (1:3), treated with 0.8 mM cross-linker dithiobis(succinimidyl-propionate) for 30 min before lysis (1% Triton, 150 mM NaCl); lysate on GFP beads (Chromotek) 2 h at 4°C; blot with anti-ASPP2 and anti-GFP
row,binding,Binder
1,binds,B1
2,binds,B2
3,binds,B3
